# Where two headings read alike, the source gives them in different places. No constants are given. Whether binding was seen depends on the method and setting. For part of these data: Binding seen in cells or lysates may run through a third protein. Some binding calls cover weakened binding; strength is not graded here. Tags and fused reporters may be left off the sequences shown.
# Amino acid sequences for entries named in this document (tags omitted).
# UniProt Q9F4H4: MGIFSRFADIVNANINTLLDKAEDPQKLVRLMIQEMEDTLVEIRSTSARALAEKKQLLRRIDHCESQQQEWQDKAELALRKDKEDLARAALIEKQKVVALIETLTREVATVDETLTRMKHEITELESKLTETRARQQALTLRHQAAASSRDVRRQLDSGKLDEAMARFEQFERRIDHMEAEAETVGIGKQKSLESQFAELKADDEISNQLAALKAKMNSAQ
# T1: PspB-3×FLAG (Y. enterocolitica)
# T1 sequence: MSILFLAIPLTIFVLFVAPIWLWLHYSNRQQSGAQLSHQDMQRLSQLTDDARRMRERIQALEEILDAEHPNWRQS
# T2: PilQ-His6 (Pseudomonas aeruginosa), P34750
# T2 chain: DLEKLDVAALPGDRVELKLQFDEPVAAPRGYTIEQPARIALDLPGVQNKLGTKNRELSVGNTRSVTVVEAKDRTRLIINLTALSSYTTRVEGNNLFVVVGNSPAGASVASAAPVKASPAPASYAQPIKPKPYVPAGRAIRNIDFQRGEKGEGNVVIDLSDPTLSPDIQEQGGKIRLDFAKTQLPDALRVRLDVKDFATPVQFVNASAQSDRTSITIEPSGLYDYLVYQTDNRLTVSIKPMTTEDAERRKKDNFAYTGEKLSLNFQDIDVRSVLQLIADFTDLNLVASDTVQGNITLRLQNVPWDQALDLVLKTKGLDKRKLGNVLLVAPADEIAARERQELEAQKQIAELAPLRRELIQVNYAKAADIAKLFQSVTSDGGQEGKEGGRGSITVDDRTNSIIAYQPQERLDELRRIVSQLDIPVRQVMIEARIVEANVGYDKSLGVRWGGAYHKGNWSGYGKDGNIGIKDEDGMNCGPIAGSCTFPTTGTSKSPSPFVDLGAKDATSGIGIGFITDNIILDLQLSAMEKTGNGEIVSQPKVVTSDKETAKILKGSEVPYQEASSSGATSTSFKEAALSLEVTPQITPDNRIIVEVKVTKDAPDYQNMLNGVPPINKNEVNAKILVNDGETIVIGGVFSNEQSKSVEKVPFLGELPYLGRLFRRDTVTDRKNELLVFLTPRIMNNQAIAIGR
# B1: PilQ-His6 (protein, UniProt P34750 25-714)
# chain: DLEKLDVAALPGDRVELKLQFDEPVAAPRGYTIEQPARIALDLPGVQNKLGTKNRELSVGNTRSVTVVEAKDRTRLIINLTALSSYTTRVEGNNLFVVVGNSPAGASVASAAPVKASPAPASYAQPIKPKPYVPAGRAIRNIDFQRGEKGEGNVVIDLSDPTLSPDIQEQGGKIRLDFAKTQLPDALRVRLDVKDFATPVQFVNASAQSDRTSITIEPSGLYDYLVYQTDNRLTVSIKPMTTEDAERRKKDNFAYTGEKLSLNFQDIDVRSVLQLIADFTDLNLVASDTVQGNITLRLQNVPWDQALDLVLKTKGLDKRKLGNVLLVAPADEIAARERQELEAQKQIAELAPLRRELIQVNYAKAADIAKLFQSVTSDGGQEGKEGGRGSITVDDRTNSIIAYQPQERLDELRRIVSQLDIPVRQVMIEARIVEANVGYDKSLGVRWGGAYHKGNWSGYGKDGNIGIKDEDGMNCGPIAGSCTFPTTGTSKSPSPFVDLGAKDATSGIGIGFITDNIILDLQLSAMEKTGNGEIVSQPKVVTSDKETAKILKGSEVPYQEASSSGATSTSFKEAALSLEVTPQITPDNRIIVEVKVTKDAPDYQNMLNGVPPINKNEVNAKILVNDGETIVIGGVFSNEQSKSVEKVPFLGELPYLGRLFRRDTVTDRKNELLVFLTPRIMNNQAIAIGR
# B2: PilQ-His6, P34750 25-714 (protein)
# chain: DLEKLDVAALPGDRVELKLQFDEPVAAPRGYTIEQPARIALDLPGVQNKLGTKNRELSVGNTRSVTVVEAKDRTRLIINLTALSSYTTRVEGNNLFVVVGNSPAGASVASAAPVKASPAPASYAQPIKPKPYVPAGRAIRNIDFQRGEKGEGNVVIDLSDPTLSPDIQEQGGKIRLDFAKTQLPDALRVRLDVKDFATPVQFVNASAQSDRTSITIEPSGLYDYLVYQTDNRLTVSIKPMTTEDAERRKKDNFAYTGEKLSLNFQDIDVRSVLQLIADFTDLNLVASDTVQGNITLRLQNVPWDQALDLVLKTKGLDKRKLGNVLLVAPADEIAARERQELEAQKQIAELAPLRRELIQVNYAKAADIAKLFQSVTSDGGQEGKEGGRGSITVDDRTNSIIAYQPQERLDELRRIVSQLDIPVRQVMIEARIVEANVGYDKSLGVRWGGAYHKGNWSGYGKDGNIGIKDEDGMNCGPIAGSCTFPTTGTSKSPSPFVDLGAKDATSGIGIGFITDNIILDLQLSAMEKTGNGEIVSQPKVVTSDKETAKILKGSEVPYQEASSSGATSTSFKEAALSLEVTPQITPDNRIIVEVKVTKDAPDYQNMLNGVPPINKNEVNAKILVNDGETIVIGGVFSNEQSKSVEKVPFLGELPYLGRLFRRDTVTDRKNELLVFLTPRIMNNQAIAIGR
# Key:
# [1] = target: T1, PspB-3×FLAG (Y. enterocolitica); assay: co-IP; anti-FLAG M2 antibody on protein A-Sepharose; membrane fraction of Y. enterocolitica solubilised with 1% DDM in 50 mM Tris-HCl pH 7.5, 300 mM NaCl, 5 mM EDTA; 4°C overnight; native conditions; immunoblot; strains with the pspA operon under tacp or its native promoter
# [2] = target: T1, PspB-3×FLAG (Y. enterocolitica); assay: as above; remark: listed apart in the source
# [3] = target: T2, PilQ-His6 (Pseudomonas aeruginosa), …; assay: SDS-PAGE of unheated samples with immunoblot (SDS-resistant multimers); unheated total, inner and outer membrane fractions of Y. enterocolitica; 6% polyacrylamide gel; anti-His6 immunoblot; details: remark: other sources report otherwise
molecule,measurement,setting,value
PspA (from UniProt Q9F4H4 1-221),binding,[1],binds
B1,binding,[2],no binding
B2,binding,[3],no binding
